Publication PMC7039211, “Cryo-EM structure of the complete and ligand-saturated insulin receptor ectodomain” (The Journal of Cell Biology, 2019)
These are yes or no findings as the source states them, for the method shown. Where a sequence is shown, tags or fusion partners need not be part of it.

Biological target: T1, 8xHis-tagged control peptide (8xHis tag and part of the HRV3C cleavage site)
T1 sequence (peptide, C-terminal amide; labelled with RED-tris-NTA): HHHHHHHHKLEVLF
Assay: MST; in solution; RED-tris-NTA label on the 8xHis tag of IR-ECD (10 nM) or of the control peptide, unlabelled insulin titrated from 2.5 µM to 76 pM; incubated overnight at 4°C; HBS-T / HBS with 25 µM HCl, pH 7.5; measured at 25°C; one-site fit; n = 3; both purified

In the case of recombinant human insulin (ligand), the binding is reported as “no binding (tested: ≤2.5 µM)”.
